{"sequences": {"note": "Chains of the proteins cited; added tags and fusions are not shown. A line that says so, or that is headed by a name, gives the form on record, which may keep a tag or linker.", "Insulin receptor (INSR), extracellular domain on cells (Homo sapiens), one chain, as listed by the source, chain 2 of 2": "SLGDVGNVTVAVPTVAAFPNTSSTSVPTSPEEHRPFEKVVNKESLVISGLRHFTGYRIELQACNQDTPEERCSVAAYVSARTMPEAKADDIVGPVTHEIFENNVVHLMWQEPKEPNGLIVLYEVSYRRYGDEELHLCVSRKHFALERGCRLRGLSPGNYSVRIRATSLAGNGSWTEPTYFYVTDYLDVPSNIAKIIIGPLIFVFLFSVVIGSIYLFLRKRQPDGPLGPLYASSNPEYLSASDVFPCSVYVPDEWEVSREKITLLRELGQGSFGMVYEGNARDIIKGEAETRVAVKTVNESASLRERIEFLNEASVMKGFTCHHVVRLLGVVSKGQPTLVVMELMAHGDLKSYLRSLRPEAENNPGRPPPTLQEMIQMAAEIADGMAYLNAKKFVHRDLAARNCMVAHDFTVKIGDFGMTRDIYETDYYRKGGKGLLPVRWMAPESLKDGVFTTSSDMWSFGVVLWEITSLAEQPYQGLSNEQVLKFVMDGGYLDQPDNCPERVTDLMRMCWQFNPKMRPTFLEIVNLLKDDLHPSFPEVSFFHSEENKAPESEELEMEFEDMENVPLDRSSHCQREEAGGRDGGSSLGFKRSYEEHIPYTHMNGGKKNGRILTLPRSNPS"}, "source": "patent US20250223600", "test_system": "Insulin receptor (INSR), extracellular domain on cells (Homo sapiens)", "test": "activity in cells", "details": "protein on the cell surface", "key": {"[1]": {"details": "as IR-A62 monomer, unmodified TT + 20 nt linker, 3'-idT, 100 nM, single strand alone, pY1150 lower than LD1+LD2 dimer, single-stranded DNA, variant of IR-A62 ms monomer (A62-M)"}, "[2]": {"details": "as IR-A62 monomer in both arms, T spacer 2'-OMe, pY1150 higher than monomer, single-stranded DNA, variant of IR-A62 ms monomer (A62-M), dose not given here"}, "[3]": {"details": "as IR-A62 monomer in both arms, pY1150 higher than monomer, folded or branched DNA, variant of IR-A62 ms monomer (A62-M), dose not given here"}, "[4]": {"details": "as IR-A62 monomer in both arms, pY1150 similar to monomer, dimer not formed on native gel (p151), cell line per Example 2, folded or branched DNA, variant of IR-A62 ms monomer (A62-M), dose not given here"}}, "note": "Weaker means in comparison with the reference protein, sequence or condition of that experiment. For at least one entry, the source does not settle the construct or the ends of the probe."}
{"sequence": "CATTACGCATGAGTCTAGATCCGTTTTTCGTGTAGCAAGCTGTAAT [IR-A62 ms-LD2]", "values": [{"measurement": "functional effect of the aptamer", "setting": "[1]", "result": "less active"}]}
{"sequence": "CATTACGCATGAGTCTAGATCCGTTTTTTTTTTTTTTTTTTTTCATTACGCATGAGTCTAGATCCGT [A62 SSD (15T)]", "values": [{"measurement": "functional effect of the aptamer", "setting": "[2]", "result": "active"}]}
{"sequence": "CATTACGCATGAGTCTAGATCCGTTTATTACAGCTTGCTACACG / CATTACGCATGAGTCTAGATCCGTTTCGTGTAGCAAGCTGTAAT [A62 D-1+D-2 (18 bp)]", "values": [{"measurement": "functional effect of the aptamer", "setting": "[3]", "result": "active"}]}
{"sequence": "CATTACGCATGAGTCTAGATCCGTTTATTACAGCTTGCTACA / CATTACGCATGAGTCTAGATCCGTTTTGTAGCAAGCTGTAAT [A62 D-1+D-2 (16 bp)]", "values": [{"measurement": "functional effect of the aptamer", "setting": "[3]", "result": "active"}]}
{"sequence": "CATTACGCATGAGTCTAGATCCGTTTTTCATTACGCATGAGTCTAGATCCGT [A62 SSD (HEG4)]", "values": [{"measurement": "functional effect of the aptamer", "setting": "as IR-A62 monomer in both arms, spacer 2'-OMe TT-(Spacer 18)4-TT, pY1150 higher than monomer, single-stranded DNA, variant of IR-A62 ms monomer (A62-M), dose not given here", "result": "active"}]}
{"sequence": "CATTACGCATGAGTCTAGATCCGTTTATTACAGCTTGCTACACGAA [A62-LD1 (2'OMe)]", "values": [{"measurement": "functional effect of the aptamer", "setting": "as IR-A62 monomer, linker all 2'-OMe, 3'-idT, no or very low pY1150, pY1150/Y1151, pAKT alone, single-stranded DNA, variant of IR-A62 ms-LD1, dose not given here", "result": "less active"}]}
{"sequence": "CATTACGCATGAGTCTAGATCCGTTTTTCATTACGCATGAGTCTAGATCCGT [A62 SSD (HEG1)]", "values": [{"measurement": "functional effect of the aptamer", "setting": "as IR-A62 monomer in both arms, spacer 2'-OMe TT-(Spacer 18)1-TT, pY1150 higher than monomer, single-stranded DNA, variant of IR-A62 ms monomer (A62-M), dose not given here", "result": "active"}]}
{"sequence": "CATTACGCATGAGTCTAGATCCGTTTTTCATTACGCATGAGTCTAGATCCGT [A62 SSD (HEG2)]", "values": [{"measurement": "functional effect of the aptamer", "setting": "as IR-A62 monomer in both arms, spacer 2'-OMe TT-(Spacer 18)2-TT, pY1150 higher than monomer, single-stranded DNA, variant of IR-A62 ms monomer (A62-M), dose not given here", "result": "active"}]}
{"sequence": "CATTACGCATGAGTCTAGATCCGTTTTTCATTACGCATGAGTCTAGATCCGT [A62 SSD (HEG5)]", "values": [{"measurement": "functional effect of the aptamer", "setting": "as IR-A62 monomer in both arms, spacer 2'-OMe TT-(Spacer 18)5-TT, pY1150 higher than monomer, single-stranded DNA, variant of IR-A62 ms monomer (A62-M), dose not given here", "result": "active"}]}
{"sequence": "CATTACGCATGAGTCTAGATCCGTTTATTACAGCTTGCTACACGAA / CATTACGCATGAGTCTAGATCCGTTTTTCGTGTAGCAAGCTGTAAT [A62-D (2'OMe)]", "values": [{"measurement": "functional effect of the aptamer", "setting": "as IR-A62 monomer in both arms, linkers all 2'-OMe, 3'-idT, pY1150, pY1150/Y1151 and pAKT similar to insulin, folded or branched DNA, variant of IR-A62 dimer LD1+LD2 (20 bp), dose not given here", "result": "active"}]}
{"sequence": "CATTACGCATGAGTCTAGATCCGTTTTTTTTTCATTACGCATGAGTCTAGATCCGT [A62 SSD (4T)]", "values": [{"measurement": "functional effect of the aptamer", "setting": "as IR-A62 monomer in both arms, T spacer 2'-OMe, pY1150 higher than monomer, cell line per Example 2, single-stranded DNA, variant of IR-A62 ms monomer (A62-M), dose not given …", "result": "active"}]}
{"sequence": "CATTACGCATGAGTCTAGATCCGTTTGTGGCC / CATTACGCATGAGTCTAGATCCGTTTGGCCAC [A62 D-1+D-2 (6 bp)]", "values": [{"measurement": "functional effect of the aptamer", "setting": "[4]", "result": "less active"}]}
{"sequence": "CATTACGCATGAGTCTAGATCCGTTTTTCATTACGCATGAGTCTAGATCCGT [A62 SSD (HEG6)]", "values": [{"measurement": "functional effect of the aptamer", "setting": "as IR-A62 monomer in both arms, spacer 2'-OMe TT-(Spacer 18)6-TT, pY1150 higher than monomer, single-stranded DNA, variant of IR-A62 ms monomer (A62-M), dose not given here", "result": "active"}]}
{"sequence": "CATTACGCATGAGTCTAGATCCGTTTATTACAGCTT / CATTACGCATGAGTCTAGATCCGTTTAAGCTGTAAT [A62 D-1+D-2 (10 bp)]", "values": [{"measurement": "functional effect of the aptamer", "setting": "[3]", "result": "active"}]}
{"sequence": "CATTACGCATGAGTCTAGATCCGTTTTTTTTTTTTTCATTACGCATGAGTCTAGATCCGT [A62 SSD (8T)]", "values": [{"measurement": "functional effect of the aptamer", "setting": "[2]", "result": "active"}]}
{"sequence": "CATTACGCATGAGTCTAGATCCGTTTTTTTTTTTTTTTCATTACGCATGAGTCTAGATCCGT [A62 SSD (10T)]", "values": [{"measurement": "functional effect of the aptamer", "setting": "[2]", "result": "active"}]}
{"sequence": "CATTACGCATGAGTCTAGATCCGTTTATTACAGCTTGC / CATTACGCATGAGTCTAGATCCGTTTGCAAGCTGTAAT [A62 D-1+D-2 (12 bp)]", "values": [{"measurement": "functional effect of the aptamer", "setting": "as IR-A62 monomer in both arms, 20-500 nM, pY1150, pAKT and glucose uptake higher than monomer, 100 nM dimer similar to 500 nM monomer, protein details: human IR expressed in L6 cells (hIR-L6), folded or branched DNA, variant of IR-A62 ms monomer (A62-M)", "result": "active"}, {"measurement": "functional effect of the aptamer", "setting": "[3]", "result": "active"}]}
{"sequence": "CATTACGCATGAGTCTAGATCCGTTTATTACAGC / CATTACGCATGAGTCTAGATCCGTTTGCTGTAAT [A62 D-1+D-2 (8 bp)]", "values": [{"measurement": "functional effect of the aptamer", "setting": "[4]", "result": "less active"}]}
{"sequence": "CATTACGCATGAGTCTAGATCCGTTTATTACAGCTTGCTACACGAA [IR-A62 ms-LD1]", "values": [{"measurement": "functional effect of the aptamer", "setting": "[1]", "result": "less active"}]}
{"sequence": "CATTACGCATGAGTCTAGATCCGTTTTTCATTACGCATGAGTCTAGATCCGT [A62 SSD (HEG3)]", "values": [{"measurement": "functional effect of the aptamer", "setting": "as IR-A62 monomer in both arms, spacer 2'-OMe TT-(Spacer 18)3-TT, pY1150 higher than monomer, single-stranded DNA, variant of IR-A62 ms monomer (A62-M), dose not given here", "result": "active"}]}
{"sequence": "CATTACGCATGAGTCTAGATCCGTTTATTACAGCTTGCTACACGAA / CATTACGCATGAGTCTAGATCCGTTTTTCGTGTAGCAAGCTGTAAT [IR-A62 dimer LD1+LD2 (20 bp)]", "values": [{"measurement": "functional effect of the aptamer", "setting": "as IR-A62 monomer in both aptamer arms, 100 nM in Krebs-Ringer HEPES, pY1150 significantly above monomer, also Y960, Y1146, Y1151, Y1316, Y1322, IRS Y896 and AKT, also Ex. 6-7, folded or branched DNA, variant of IR-A62 ms monomer (A62-M)", "result": "active"}]}
{"sequence": "CATTACGCATGAGTCTAGATCCGTTTTTTTTTTTCATTACGCATGAGTCTAGATCCGT [A62 SSD (6T)]", "values": [{"measurement": "functional effect of the aptamer", "setting": "[2]", "result": "active"}]}
{"sequence": "CATTACGCATGAGTCTAGATCCGTTTATTACAGCTTGCTA / CATTACGCATGAGTCTAGATCCGTTTTAGCAAGCTGTAAT [A62 D-1+D-2 (14 bp)]", "values": [{"measurement": "functional effect of the aptamer", "setting": "[3]", "result": "active"}]}
